In experiment [1] the target is T1, recombinant human kremen2-his (human) (UniProt Q8NCW0).
T1 sequence (looked up): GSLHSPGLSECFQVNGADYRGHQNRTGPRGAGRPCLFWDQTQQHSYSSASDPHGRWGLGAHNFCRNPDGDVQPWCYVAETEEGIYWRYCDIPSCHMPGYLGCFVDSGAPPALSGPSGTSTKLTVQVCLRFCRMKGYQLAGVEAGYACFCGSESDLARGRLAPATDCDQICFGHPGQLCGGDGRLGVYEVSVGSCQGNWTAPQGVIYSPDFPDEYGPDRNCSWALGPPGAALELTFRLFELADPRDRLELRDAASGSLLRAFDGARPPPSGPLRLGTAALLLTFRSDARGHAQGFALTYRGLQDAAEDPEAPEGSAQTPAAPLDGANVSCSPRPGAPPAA
Put plainly: co-immunoprecipitation with anti-His antibody, Western blot with anti-Flag antibody; receptor is kremen2-his by paragraph 311, paragraph 313 and paragraph 314, although the lane lists in paragraph 31 and paragraph 313 say LRP6-His.

Chains of the proteins cited; added tags and fusions are not shown. Residues count along the entry.
UniProt O88572, residues 20-1370: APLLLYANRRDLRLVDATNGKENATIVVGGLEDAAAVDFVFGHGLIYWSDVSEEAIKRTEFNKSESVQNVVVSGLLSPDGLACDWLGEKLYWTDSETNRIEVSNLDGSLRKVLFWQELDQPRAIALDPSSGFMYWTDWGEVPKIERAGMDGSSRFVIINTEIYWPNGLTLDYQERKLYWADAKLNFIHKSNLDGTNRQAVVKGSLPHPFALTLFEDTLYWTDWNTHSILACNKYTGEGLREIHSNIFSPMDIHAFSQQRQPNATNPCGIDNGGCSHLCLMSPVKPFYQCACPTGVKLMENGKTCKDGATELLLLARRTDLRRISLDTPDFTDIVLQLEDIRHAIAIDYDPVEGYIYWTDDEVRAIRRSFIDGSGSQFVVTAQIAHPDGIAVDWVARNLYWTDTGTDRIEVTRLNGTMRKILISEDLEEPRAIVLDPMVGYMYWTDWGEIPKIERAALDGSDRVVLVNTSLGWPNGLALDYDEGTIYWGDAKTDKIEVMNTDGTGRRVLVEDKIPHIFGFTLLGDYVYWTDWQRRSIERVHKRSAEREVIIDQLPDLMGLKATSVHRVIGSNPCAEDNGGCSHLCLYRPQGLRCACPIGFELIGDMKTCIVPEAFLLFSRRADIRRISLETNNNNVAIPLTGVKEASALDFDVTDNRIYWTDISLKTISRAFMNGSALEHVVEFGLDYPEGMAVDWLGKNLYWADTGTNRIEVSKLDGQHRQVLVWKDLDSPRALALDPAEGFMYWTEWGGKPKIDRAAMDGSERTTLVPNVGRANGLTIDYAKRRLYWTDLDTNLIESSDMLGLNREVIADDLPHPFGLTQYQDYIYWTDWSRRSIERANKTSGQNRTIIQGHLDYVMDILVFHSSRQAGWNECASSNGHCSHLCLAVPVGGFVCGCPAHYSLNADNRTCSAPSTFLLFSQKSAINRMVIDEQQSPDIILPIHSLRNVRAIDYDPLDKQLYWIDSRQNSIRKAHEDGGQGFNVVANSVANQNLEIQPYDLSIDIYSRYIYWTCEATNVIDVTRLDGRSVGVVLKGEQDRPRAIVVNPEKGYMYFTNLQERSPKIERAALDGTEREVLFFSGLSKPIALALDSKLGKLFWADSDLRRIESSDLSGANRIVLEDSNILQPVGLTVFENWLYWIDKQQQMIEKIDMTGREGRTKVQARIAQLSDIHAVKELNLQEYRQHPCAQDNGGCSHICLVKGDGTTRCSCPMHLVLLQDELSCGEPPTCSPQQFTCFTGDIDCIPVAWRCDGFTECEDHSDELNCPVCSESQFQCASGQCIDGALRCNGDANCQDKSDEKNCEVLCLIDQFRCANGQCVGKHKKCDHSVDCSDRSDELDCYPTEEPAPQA

In a further experiment the target is LRP6-His (mouse) (UniProt O88572). Put plainly: co-immunoprecipitation with anti-His antibody, Western blot with anti-Flag antibody. Background: Immunoblotting shows a protein as a band on a membrane.

These are yes or no findings as the source states them, for the method shown. Binding seen in cells or lysates may run through a third protein. Some entries that bind do so weakly or less than the wild type. Sequences can lack the tags named with a protein.

B1: Flag tagged rhDKK1 (ligand, not shown: small tags and cut ends)
chain: TLNSVLNSNAIKNLPPPLGGAAGHPGSAVSAAPGILYPGGNKYQTIDNYQPYPCAEDEECGTDEYCASPTRGGDAGVQICLACRKRRKRCMRHAMCCPGNYCKNGICVSSDQNHFRGEIEETITESFGNDHSTLDGYSRRTTLSSKMYHTKGQEGSVCLRSSDCASGLCCDRHFWSKICKPVLKEGQVCTKHRRKGSHGLEIFQRCYCGEGLSCRIQKDHHQASNSSRLHTCQRH
On to B1, for which the binding result (in experiment [1]; in the experiment with LRP6-His (mouse)) was “binds” each time.

Values taken from patent US20210040189A1.
